PubChem BioAssay AID504744 – Drosophila RNAi Screening Center – 2011

- Screen: 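Find genes whose loss alters insulin-driven dAkt phosphorylation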 (primary screen)
- Cell system: Drosophila Kc167 cells
- Knock-down reagent: long dsRNA against Drosophila genes, 250 ng dsRNA per well of a 384-well plate
- Duration: 3 days of knock-down, then overnight serum-free starvation before stimulation
- Challenge: bovine insulin at 387 nM for 10 minutes after 12 h without serum
- Detection: 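In-cell antibody fluorescence for phospho-dAkt in each well over DNA-dye signal, with log2 residuals expressed as z-scores adjusted for cell count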
- Call rule: 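Hit in the insulin screen when the two-replicate mean z-score is more extreme than plus or minus 2.5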
In all, the deposit lists about 23,000 reagents; below is an unselected part of those with a known target gene and a result. Of all reagents, 98 (0.43%) got an active call. 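Only hit calls are given; the phospho-dAkt signals, z-scores and hit direction were not deposited.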 Names joined by + are all predicted targets of the reagent. Reagent sequences are not shown.

no.	gene	amplicon	outcome
1	lectin-24Db	DRSC00553	inactive
2	CG6325	DRSC16020	inactive
3	Sgs4	DRSC18715	inactive
4	CG30031 + deltaTry + gammaTry	DRSC07622	inactive
5	Opbp	DRSC04966	inactive
6	CG4461	DRSC10423	inactive
7	CG12010	DRSC08218	inactive
8	Srrm234	DRSC07955	inactive
9	Srrm234	DRSC08606	inactive
10	CG18536	DRSC06763	inactive
11	GABA-B-R3	DRSC00561	inactive
12	Lcp3	DRSC07457	inactive
13	Fuca	DRSC10591	inactive
14	dos	DRSC07992	inactive
15	dos	DRSC08713	inactive
16	CG7382	DRSC03052	inactive
17	cyst	DRSC02023	inactive
18	Ms	DRSC16041	inactive
19	CG42674	DRSC10066	inactive
20	CG42674	DRSC10067	inactive
21	CG42674	DRSC10811	inactive
22	CG10874	DRSC00297	inactive
23	CG12713	DRSC09900	inactive
24	naz	DRSC14790	inactive
25	naz	DRSC16199	inactive
26	CG14306 (retired record)	DRSC14785	inactive
27	Rhau	DRSC03200	inactive
28	E(spl)malpha-BFM	DRSC16994	inactive
29	uncNacbeta	DRSC00326	inactive
30	CG15345 (retired record)	DRSC18030	inactive
31	CG15345 (retired record)	DRSC22712	inactive
32	CG2889	DRSC18236	inactive
33	CG5194	DRSC10492	inactive
34	dec	DRSC18759	inactive
35	dec	DRSC21477	inactive
36	CG15403	DRSC00417	inactive
37	CG5167	DRSC15728	inactive
38	Cpr97Ea	DRSC15974	inactive
39	CG10700	DRSC02096	inactive
40	Mst27D	DRSC00967	inactive
41	CG13766	DRSC02271	inactive
42	mei-P26	DRSC17735	inactive
43	Osbp	DRSC16779	inactive
44	Jhbp4	DRSC14222	inactive
45	Dbp80	DRSC22034	inactive
46	CG13117	DRSC02215	inactive
47	CG14545	DRSC14889	inactive
48	CG6685	DRSC10695	inactive
49	msps	DRSC17004	inactive
50	CG16964	DRSC02546	inactive
51	CG4306	DRSC10409	inactive
52	moi + Tgs1	DRSC16371	inactive
53	az2	DRSC07580	inactive
54	CG13407	DRSC14583	inactive
55	Cpr31A	DRSC02779	inactive
56	CG15548	DRSC15086	inactive
57	7SLRNA:CR42652 + 7SLRNA:CR32864	DRSC22968	inactive
58	CG16789	DRSC15155	inactive
59	CG7071 + Muted	DRSC16189	inactive
60	CG13506	DRSC04150	inactive
61	CG3679	DRSC19346	inactive
62	CG31088	DRSC13123	inactive
63	CG12321	DRSC14499	inactive
64	CG15572	DRSC18060	inactive
65	tra2	DRSC07708	inactive
66	Gba1a	DRSC21494	inactive
67	CG32147	DRSC09346	inactive
68	GM130	DRSC04617	inactive
69	CG42713	DRSC01050	inactive
70	scat	DRSC02722	inactive
71	Hr78	DRSC11866	inactive
72	Rich	DRSC11607	inactive
73	dob	DRSC19948	inactive
74	SkpB	DRSC07683	inactive
75	PsGEF	DRSC18596	inactive
76	LpR1	DRSC15665	inactive
77	LpR1	DRSC15669	inactive
78	LpR1	DRSC15670	inactive
79	Bili	DRSC14405	inactive
80	Gr59e	DRSC04276	inactive
81	nclb	DRSC07009	inactive
82	Tace	DRSC16340	inactive
83	spirit	DRSC18202	inactive
84	Cpr12A	DRSC19722	inactive
85	CG17068	DRSC20545	inactive
86	CG8066	DRSC16374	inactive
87	Dad	DRSC16642	inactive
88	Moe	DRSC18684	inactive
89	CG17994	DRSC04877	inactive
90	Fa2h	DRSC06608	inactive
91	Fa2h	DRSC06609	inactive
92	CG15602	DRSC19671	inactive
93	jim	DRSC11889	inactive
94	Ccs	DRSC06692	inactive
95	SmE	DRSC02680	inactive
96	CG10803	DRSC17763	inactive
97	mthl2	DRSC10287	inactive
98	Lcp1	DRSC07455	inactive
99	stck	DRSC17070	inactive
100	Gld	DRSC12595	inactive
101	Gas8	DRSC22884	inactive
102	Gr64a	DRSC21713	inactive
103	CG32196	DRSC09548	inactive
104	Vps37B	DRSC12165	active
105	Sh	DRSC19214	inactive
106	Sh	DRSC19220	inactive
107	Sh	DRSC19785	inactive
108	Sh	DRSC20055	inactive
109	Sh	DRSC22567	inactive

Taken from above.
For “outcome”, GM130 [DRSC04617] reads inactive
For “outcome”, CG13506 [DRSC04150] is entered as inactive
For “outcome”, cyst [DRSC02023] has inactive
Under “outcome”, CG15345 (retired record) [DRSC18030] has inactive
Under “outcome”, CG30031 + deltaTry + gammaTry [DRSC07622] reads inactive
Result of CG12010 [DRSC08218] under “outcome”: inactive
